Data published in PubChem BioAssay (NCATS).
The inconclusive results got no clear call from the source; some entries with a clear call stand among them for comparison. Where the call is inconclusive, the potency comes from a doubtful curve fit. The source made the active and inactive calls. Calls follow the shape of the dose curve; as a rule, active = well fitted inhibition curve with a large enough effect; inconclusive = small, poorly fitted or top-dose-only effect; inactive = no such curve, though single readings can be large or run the other way.

Target: Aldehyde dehydrogenase 1A1 (Homo sapiens) (UniProt P00352)
Experiment: qHTS for Inhibitors of the Aldehyde Dehydrogenase Family (ALDH1A1) Confirmatory screens (AID 2061316); also: nearly all actives have a fitted effect of over 65% in size
Settings: ALDH inhibition qHTS; activity change, negative = inhibition: at 47.3 µM (top of the series); series mostly up to 47.3 µM
% is scaled to controls: 0 for no effect and ±100 for the full control effect; potency is read from the fitted curve at half-maximal effect.

Row | Structure (SMILES) | outcome | Potency | activity change, negative = inhibition
1 | CC(C)(C)c1ccc(SC2=NS(=O)(=O)c3ccccc32)cc1 | inactive | – | –
2 | COc1ccc(C2=NN(CC(=O)NCCc3ccc(OC)c(OC)c3)C(=O)CC2)cc1 | – | inconclusive: 18.2 µM [inhibitor, partial curve] | –
3 | CCOC(=O)Cn1c(=O)oc2cc(S(=O)(=O)N3CCN(c4ccc(Cl)cc4)CC3)ccc21 | – | – | inactive: -5.66%
4 | COc1cccc(C2c3c(ncn(-c4ccccc4C#N)c3=N)Oc3ccc4ccccc4c32)c1 (centres undefined) | – | inconclusive: 17.9 µM [inhibitor, partial curve, poor fit] | –
5 | Cc1ccc2nc3sc(C(=O)N4CCCCC4)cc3cc2c1 | – | inconclusive: 8.96 µM [inhibitor, partial curve] | –
6 | COc1ccc(NC(=O)Nc2ccc(-c3nc4ccccc4[nH]3)cc2)cc1OC | – | inconclusive: 17.9 µM [inhibitor, partial curve, poor fit] | –
7 | CCOC(=O)Cn1c(=O)oc2cc(S(=O)(=O)N3CCN(c4ccc(C(C)=O)cc4)CC3)ccc21 | – | inconclusive: 28.2 µM [inhibitor, partial curve, poor fit] | –
8 | Clc1ncoc1-c1c[nH]c2ccccc12 | – | inconclusive: 1.01 µM [inhibitor, full curve] | –
9 | N#CNC(=O)c1ccc(-n2cccc2/C=C2\NC(=O)N(CC(=O)Nc3cccc(F)c3)C2=O)cc1 | – | – | inactive: -8%
10 | COc1ccc(C2Nc3ccccc3C(=O)N2Cc2ccc(C(F)(F)F)cc2)cc1COc1ccc(NC(C)=O)cc1 (centres undefined) | – | active: 22.5 µM | –
11 | CN1C(=O)Cc2cc([S+](=O)([O-])N3CCN([S+](=O)([O-])c4c(F)cccc4F)CC3)ccc21 | – | inconclusive: 11.3 µM [inhibitor, partial curve] | –
12 | Cc1cccc(OC2=NS(=O)(=O)c3ccccc32)c1 | inactive | – | –
13 | Cc1cnc(-c2ccccc2N(C)C)nc1NCc1ccc(-c2cccnc2)cc1 | – | active: 14.2 µM | –
14 | CC(C)(Nc1nc(-c2ccccc2C(F)(F)F)nc2ccccc12)c1ccc(-c2cccc(C(F)(F)F)c2)cc1 | – | inconclusive: 28.3 µM [inhibitor, single point] | –
15 | COc1ccc(C2Nc3ccccc3C(=O)N2Cc2ccc(-c3ccccc3)cc2)cc1COc1ccc(NC(C)=O)cc1 (centres undefined) | – | inconclusive: 25.2 µM [inhibitor, partial curve] | –
16 | Cc1ccc(-c2ccc(C=O)cc2)c(C)c1 | – | inconclusive: 5.91 µM [inhibitor, full curve] | –
17 | CC(=O)Nc1sc2c(c1-c1cc3ccccc3[nH]1)CCNC2 | – | inconclusive: 12.7 µM [inhibitor, partial curve] | –
18 | C/C(=C\c1cccc(C(F)(F)F)c1)C1Nc2cccc3cccc(c23)N1 | – | inconclusive: 12.7 µM [inhibitor, partial curve, poor fit] | –
19 | Cc1ccc(C(=O)N2CCC(CCC(=O)N3CCCCC3)CC2)cc1 | – | inconclusive: 22.9 µM [inhibitor, partial curve] | –
20 | CC(=O)Nc1sc2c(c1-c1cnn(C(C)=O)c1)CCNC2 | – | inconclusive: 22.5 µM [inhibitor, partial curve] | –

Row | Structure (SMILES) | outcome | Potency | activity change, negative = inhibition
21 | O=C(C(NS(=O)(=O)c1ccc2[nH]c(=O)ccc2c1)c1cccc(C(F)(F)F)c1)N(Cc1ccco1)Cc1cccs1 (centres undefined) | – | – | inactive: -24.5%
22 | COc1ccc(C2=Nn3c(nnc3-c3cccc(OC)c3)SC2)cc1 | – | – | inactive: -0.363%
23 | CNS(=O)(=O)c1ccc(Cc2c(-c3cccc(-c4ccccc4)c3)[nH]n(-c3nc(C(=O)O)cs3)c2=O)cc1 | – | inconclusive: 22.5 µM [inhibitor, partial curve] | –
24 | Cc1cnc(-c2ccccc2C(C)O)nc1NCC1CCN(c2cccnc2)CC1 (centres undefined) | – | inconclusive: 11.3 µM [inhibitor, partial curve] | –
25 | O=C(C1CCN(Cc2ccccc2-c2ccccc2F)CC1)N1CCC(Cc2ccccc2)CC1 | – | inconclusive: 11.5 µM [inhibitor, partial curve] | –
26 | Cc1ccc(-c2cnn(CC(=O)NCCc3ccccc3)c(=O)c2)cc1 | – | inconclusive: 20.1 µM [inhibitor, partial curve] | –
27 | CC(C)(C)OC(=O)N[C@@H](Cc1ccc(O[S+](=O)([O-])c2cccnc2)cc1)C(=O)N1CCN(c2ccccc2)CC1 | – | inconclusive: 7.12 µM [inhibitor, full curve] | –
28 | O=C(c1ccco1)N1CCN(c2nc(-c3ccc(Br)cc3)cs2)CC1 | – | inconclusive: 25.2 µM [inhibitor, partial curve] | –
29 | COc1ccc(-n2c(C)c(C(C)=O)c3ccccc32)cc1 | – | inconclusive: 28.3 µM [inhibitor, partial curve, poor fit] | –
30 | Cc1nnc(CN(C)c2ncnc3ccc(-c4ccc5c(c4)OCO5)cc23)o1 | – | active: 14.2 µM | –
31 | Cc1cc(C=CC#N)cc(C)c1Nc1nc(Nc2ccc3c(c2)CCC3)c2[nH]cnc2n1 | – | inconclusive: 15.9 µM [inhibitor, partial curve] | –
32 | NC(=O)C1CCN(c2nc(-c3ccc([N+](=O)[O-])cc3)cs2)CC1 | – | inconclusive: 11.3 µM [inhibitor, partial curve] | –
33 | N[C@@H]1CCN(c2cnc3c(O)ccc(C(=O)O)c3c2)C1 | – | – | inactive: -8.46%
34 | CCN(CC)C(=O)CC(c1ccc2c(c1)OCO2)c1c(O)cc(OC)cc1OC (centres undefined) | – | inconclusive: 51.7 µM [inhibitor, partial curve, poor fit] | –
35 | O=C(CCC1CCCN(S(=O)(=O)c2ccccc2F)C1)NCCCN1CCOCC1 (centres undefined) | – | – | inactive: 2.28%
36 | Cc1ccc(S(=O)(=O)Nc2cccc3ccc[n+](C)c23)cc1 | – | inconclusive: 11.3 µM [inhibitor, partial curve] | –
37 | N#Cc1nc(Nc2cccc([N+](=O)[O-])c2)nc(NC2CCCC2)n1 | – | inconclusive: 12.7 µM [inhibitor, partial curve] | –
38 | Cc1ccc(NC(=O)CN2C(=O)N/C(=C\c3ccco3)C2=O)cc1 | – | inconclusive: 2.52 µM [inhibitor, full curve] | –
39 | Cc1ccc(NS(=O)(=O)c2cc3c(cc2N2CCC2)NC(=O)CC3)cc1C | – | active: 11.3 µM | –

Record cards, as listed above. Order of values: outcome	Potency	activity change, negative = inhibition
`CNS(=O)(=O)c1ccc(Cc2c(-c3cccc(-c4ccccc4)c3)[nH]n(-c3nc(C(=O)O)cs3)c2=O)cc1` reads –	inconclusive: 22.5 µM [inhibitor, partial curve]	–
`COc1ccc(C2=Nn3c(nnc3-c3cccc(OC)c3)SC2)cc1` reads –	–	inactive: -0.363%
